The list shows a part of the results.
The sequences below were run against OsWRKY34 (Oryza sativa, UniProt Q0JBA9 1-250) (assay: protein-binding microarray (RPBM); PBS, 2% BSA, 51.3 ng/ul salmon testes DNA, 50 uM zinc acetate, 200 nM TF, 25 C, 1 h; high values mean tight binding). Conditions: protein: recombinant; tags: N-terminal polyhistidine and DsRed monomer fusion (pET32a); label: CyDye5-dUTP incorporated in the synthesized complementary strand; 3' TTTTT single-stranded linker to array surface; dsDNA, one strand shown.
In short: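 A custom Agilent array was converted to double-stranded form by primer extension with Cy5-dUTP and blocked with 2% BSA. Protein at 200 nM in PBS with 2% BSA, salmon testes DNA and 50 µM zinc acetate was applied for 1 h at 25 °C, followed by washing. The proteins were polyhistidine–DsRed N-terminal fusions of transcription factors, expressed in E. coli BL21-CodonPlus and Ni–NTA-purified. The binding signal is per-feature fluorescence intensity (arbitrary units) from an Axon 4000B scanner.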

Chains of the proteins cited; added tags and fusions are not shown.
UniProt Q0JBA9, entry or part of it: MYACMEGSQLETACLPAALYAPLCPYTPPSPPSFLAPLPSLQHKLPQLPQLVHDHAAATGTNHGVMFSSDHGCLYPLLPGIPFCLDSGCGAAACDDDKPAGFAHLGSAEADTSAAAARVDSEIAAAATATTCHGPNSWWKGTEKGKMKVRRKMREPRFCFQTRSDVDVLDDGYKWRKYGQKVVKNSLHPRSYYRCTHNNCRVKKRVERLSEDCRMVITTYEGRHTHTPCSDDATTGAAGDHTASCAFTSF

Sequence	binding signal
CAGGCCCTTTCTATGCTATCCTCCTTTTTTTTTTGTCAACCGGAGTCACCTAGTGCAG	10200 fluorescence intensity (a.u.)
TGTGTGTGTTTTAATTAATTAACATTTATATAAATATGAACGGAGTCACCTAGTGCAG	8540 fluorescence intensity (a.u.)
GGCGGCTAAGTGGGTTTTTTCGCGTTCCGCGCGGAGAAGACGGAGTCACCTAGTGCAG	9590 fluorescence intensity (a.u.)
CAGGCCAGCATTTTGTTGTAGTAGCACTGTCTGTATGTTCCGGAGTCACCTAGTGCAG	9010 fluorescence intensity (a.u.)
GCAACCAACATCCCGGCGGCGAGCTCGTACGTACCAAATCCGGAGTCACCTAGTGCAG	10800 fluorescence intensity (a.u.)
CCGCCGCCGCCGGGCCGCCGCCGCCTCGTGCACTGCCTTCCGGAGTCACCTAGTGCAG	8160 fluorescence intensity (a.u.)
AATTCCACTTACAATCATTTTTATTTCTTTACAAAATGCTCGGAGTCACCTAGTGCAG	8670 fluorescence intensity (a.u.)
AACCCGCTATGTATCATGCCAATTTTTTTAATCCACATGACGGAGTCACCTAGTGCAG	8760 fluorescence intensity (a.u.)
CAGGTGGACGGCGGTGGTGGTGGTGGTGGTGGCGGCGATGCGGAGTCACCTAGTGCAG	17000 fluorescence intensity (a.u.)
TCGAAACATAAGTATATGTTGGTATGTCCACGGTTTCTTTCGGAGTCACCTAGTGCAG	8380 fluorescence intensity (a.u.)
ATAGCCACCACGACCCTCCGATTTTACGGTCGGCCCAGCCCGGAGTCACCTAGTGCAG	8360 fluorescence intensity (a.u.)
CAAGCGCCGCATCTGCTCTCGAGTTTTCCGCTTCCGCAAACGGAGTCACCTAGTGCAG	8440 fluorescence intensity (a.u.)
TTGTACCCATTGCTTTGTTCAGTTGTCACTCACTCCTACTCGGAGTCACCTAGTGCAG	12000 fluorescence intensity (a.u.)
ACCCAGCGGCAACCGCTACTTCCTCCTGCTCGTCGACGACCGGAGTCACCTAGTGCAG	9240 fluorescence intensity (a.u.)
ATCATTTTCACAATGTAAGTCATTCTAGCATTTTTCATATCGGAGTCACCTAGTGCAG	8190 fluorescence intensity (a.u.)
TAGTAGCTGTTGTTCATGTACAGTTTGGTTGTTCATTGGTCGGAGTCACCTAGTGCAG	10700 fluorescence intensity (a.u.)
GAGACTTTGCCCTTTTATTTTCTTTCTTTTTTTTTTCCTTCGGAGTCACCTAGTGCAG	9360 fluorescence intensity (a.u.)
ACACACAAAATTACACAGCATCTGCCTTTATTTTTCTTTTCGGAGTCACCTAGTGCAG	9230 fluorescence intensity (a.u.)
ATTTATTCTCGTTGCTACTTCTTTGCTGATCAAGATTCGCCGGAGTCACCTAGTGCAG	8680 fluorescence intensity (a.u.)
TTTTTGGGCTTACACTGTCCCTTTTTTATCGCTGCGTCCACGGAGTCACCTAGTGCAG	11500 fluorescence intensity (a.u.)
AGGGGCGGAACTGGGTAGGCAGGGTGGGTTATATTTGAGCCGGAGTCACCTAGTGCAG	10500 fluorescence intensity (a.u.)

Sequence	binding signal
TGCCTTCTCGGGCTCATGGTGGAGGGGCAGGGGCTGCCTTCGGAGTCACCTAGTGCAG	9700 fluorescence intensity (a.u.)
TACTCGATCTCTCTCTGTTTCATATTATAAACCGTTTAAACGGAGTCACCTAGTGCAG	8520 fluorescence intensity (a.u.)
CACACACACCCTGTCGAGCGAATATGCATGTCTTCTCAAGCGGAGTCACCTAGTGCAG	8960 fluorescence intensity (a.u.)
ATATGACTATTCAGGTGTCCATAATGTTTCCTGTTTGTTTCGGAGTCACCTAGTGCAG	12600 fluorescence intensity (a.u.)
TTGCAGCAAATTTGTTATAACATGCGCTCTCCTGTACTACCGGAGTCACCTAGTGCAG	9100 fluorescence intensity (a.u.)
GTAATTAGCTAATCAATCTTTTCGGCTGTGCTTAATTAACCGGAGTCACCTAGTGCAG	9050 fluorescence intensity (a.u.)
GCTGGTCCCGTTTCTCACTTCGCAACACTAGGCTTTTTGCCGGAGTCACCTAGTGCAG	11400 fluorescence intensity (a.u.)
GCGGATCATCCTCCCCTGCCGCGCGTGGGTGTTGTCTTCTCGGAGTCACCTAGTGCAG	8430 fluorescence intensity (a.u.)
TTCCTCATTTATTCACTTGCCATGTCATTTTTTGTTCTAGCGGAGTCACCTAGTGCAG	13300 fluorescence intensity (a.u.)
TTGCGTCTGCGTTTTTTGGATTTCTGGGAGACATTCATTTCGGAGTCACCTAGTGCAG	8240 fluorescence intensity (a.u.)
GAGCTGCTGCTGTCTTTGGTGGGGTTTATATAGGTTTGCTCGGAGTCACCTAGTGCAG	9480 fluorescence intensity (a.u.)
ACACGTGTCCAGTCGCGCGGGGAGGAGGGCATGCGACTGGCGGAGTCACCTAGTGCAG	8510 fluorescence intensity (a.u.)
CCAGTTCCTATCCAATCTCTGGTCTTCCGGCAGGTCCCCGCGGAGTCACCTAGTGCAG	9080 fluorescence intensity (a.u.)
GAGCCCTGGGTGCAGCAGCCTTGGAAATTTCTCTGCATTTCGGAGTCACCTAGTGCAG	8170 fluorescence intensity (a.u.)
GTTGTATTGGAATTCTTCAGTTCTCAGCTTGGCTTTACATCGGAGTCACCTAGTGCAG	8450 fluorescence intensity (a.u.)
ACAACTGACTTACCCTTTCTGACTTGCAGATCAATTTGTCCGGAGTCACCTAGTGCAG	9050 fluorescence intensity (a.u.)
AGCACTTCTTTCTATGCTTTTTGCAAGCATTCGTGTATCTCGGAGTCACCTAGTGCAG	10700 fluorescence intensity (a.u.)
GCGCAAACGCTCGAATTTTTGGTTTTGATCCATATGCATACGGAGTCACCTAGTGCAG	8580 fluorescence intensity (a.u.)
CTTCTCCTTGCTTCTCCGTAACCTCGCGCTTTCTTGGCCGCGGAGTCACCTAGTGCAG	8890 fluorescence intensity (a.u.)
ACGGCGAGACGGTTTGCGGCGGCGGCGGTGGGGTTGGGATCGGAGTCACCTAGTGCAG	10600 fluorescence intensity (a.u.)
TACCGTTGACTTTGGACAAAATTTACTCAAACAGTAGCAACGGAGTCACCTAGTGCAG	12700 fluorescence intensity (a.u.)

Shown in CSV form: entries from further up.
Sequence,binding signal
GTAATTAGCTAATCAATCTTTTCGGCTGTGCTTAATTAACCGGAGTCACCTAGTGCAG,9050 fluorescence intensity (a.u.)
GCTGGTCCCGTTTCTCACTTCGCAACACTAGGCTTTTTGCCGGAGTCACCTAGTGCAG,11400 fluorescence intensity (a.u.)
GCGGATCATCCTCCCCTGCCGCGCGTGGGTGTTGTCTTCTCGGAGTCACCTAGTGCAG,8430 fluorescence intensity (a.u.)
TTCCTCATTTATTCACTTGCCATGTCATTTTTTGTTCTAGCGGAGTCACCTAGTGCAG,13300 fluorescence intensity (a.u.)
TTGCGTCTGCGTTTTTTGGATTTCTGGGAGACATTCATTTCGGAGTCACCTAGTGCAG,8240 fluorescence intensity (a.u.)
GAGCTGCTGCTGTCTTTGGTGGGGTTTATATAGGTTTGCTCGGAGTCACCTAGTGCAG,9480 fluorescence intensity (a.u.)
ACACGTGTCCAGTCGCGCGGGGAGGAGGGCATGCGACTGGCGGAGTCACCTAGTGCAG,8510 fluorescence intensity (a.u.)
CCAGTTCCTATCCAATCTCTGGTCTTCCGGCAGGTCCCCGCGGAGTCACCTAGTGCAG,9080 fluorescence intensity (a.u.)
GAGCCCTGGGTGCAGCAGCCTTGGAAATTTCTCTGCATTTCGGAGTCACCTAGTGCAG,8170 fluorescence intensity (a.u.)
GTTGTATTGGAATTCTTCAGTTCTCAGCTTGGCTTTACATCGGAGTCACCTAGTGCAG,8450 fluorescence intensity (a.u.)
ACAACTGACTTACCCTTTCTGACTTGCAGATCAATTTGTCCGGAGTCACCTAGTGCAG,9050 fluorescence intensity (a.u.)
AGCACTTCTTTCTATGCTTTTTGCAAGCATTCGTGTATCTCGGAGTCACCTAGTGCAG,10700 fluorescence intensity (a.u.)
GCGCAAACGCTCGAATTTTTGGTTTTGATCCATATGCATACGGAGTCACCTAGTGCAG,8580 fluorescence intensity (a.u.)
CTTCTCCTTGCTTCTCCGTAACCTCGCGCTTTCTTGGCCGCGGAGTCACCTAGTGCAG,8890 fluorescence intensity (a.u.)
ACGGCGAGACGGTTTGCGGCGGCGGCGGTGGGGTTGGGATCGGAGTCACCTAGTGCAG,10600 fluorescence intensity (a.u.)

Remaining list, next part

Sequence	binding signal
ACATCTGTACAAACAAGCCACGCCGTCTCCTGTTGGAATTCGGAGTCACCTAGTGCAG	8730 fluorescence intensity (a.u.)
AATTTCGGTCTCGGTCTTCGGTCTTTCGGTTTTTTCGGTCCGGAGTCACCTAGTGCAG	11800 fluorescence intensity (a.u.)
GATGGCGTACCAAAGTACTGGTAAAAACATCTTCAGTTTTCGGAGTCACCTAGTGCAG	22300 fluorescence intensity (a.u.)
AATTTCTTGCTTTACTGCCTATTGTGCTTGTATGGTTCTGCGGAGTCACCTAGTGCAG	10000 fluorescence intensity (a.u.)
TACTTCTGACCACTCATACTTAGGTGTACATGCAACGAGGCGGAGTCACCTAGTGCAG	8640 fluorescence intensity (a.u.)
TTCCTTATCACATGGGCTCTACATGCCATTGTCACATAAACGGAGTCACCTAGTGCAG	9240 fluorescence intensity (a.u.)
TGTAGTACTCCATTTCTCAGCAGTCTTTGTTCCTCATAGTCGGAGTCACCTAGTGCAG	8880 fluorescence intensity (a.u.)
GAATCAGGACTTAGCCATCTCACATTTCTCCTGATCTTCACGGAGTCACCTAGTGCAG	14500 fluorescence intensity (a.u.)
TTGTTACGAGAGTCCATAGCTTATCCTTATTTCTAACAATCGGAGTCACCTAGTGCAG	8810 fluorescence intensity (a.u.)
TCCATGCATTCGTTACACTCGGTCTGTTTTCCTTCGCTCACGGAGTCACCTAGTGCAG	11500 fluorescence intensity (a.u.)
CCGTATATTGGTCAACATTGGTTGAATCTATCATAACCATCGGAGTCACCTAGTGCAG	11900 fluorescence intensity (a.u.)
TTCGATGACGCGTGCCATTTTTCCTGCAAAGTGTCTTTTTCGGAGTCACCTAGTGCAG	9330 fluorescence intensity (a.u.)
CATCTTACTCTAGCTTCTCCATTCCAAAATTCACCACCGCCGGAGTCACCTAGTGCAG	8720 fluorescence intensity (a.u.)
TCTTGATTCACAAACGTTTCCCAGCCACACTCGGTCAAATCGGAGTCACCTAGTGCAG	9850 fluorescence intensity (a.u.)
ACCGGACACCACCCCATGCCGCGCGGCCGTGCGGCGCCCCCGGAGTCACCTAGTGCAG	8340 fluorescence intensity (a.u.)
GCCACTTACACAGTATTTATACCTCATTTACACCCCACTTCGGAGTCACCTAGTGCAG	8400 fluorescence intensity (a.u.)
AACCCACCTATCTTGTTTTCCACGTGTACGCTTTTCAAACCGGAGTCACCTAGTGCAG	19200 fluorescence intensity (a.u.)
GCAGCACTCACAGCTCGACACGTGTCCCGCATCACGTGTCCGGAGTCACCTAGTGCAG	9190 fluorescence intensity (a.u.)
ATTTGTCGTTTTGCATGCCGTATTTAGGCCCTATTTAGTTCGGAGTCACCTAGTGCAG	9760 fluorescence intensity (a.u.)
CTCGCACCCGCACCCGTACCAACCCCGACCGAGCGAGCCGCGGAGTCACCTAGTGCAG	8480 fluorescence intensity (a.u.)
TTGGGGTTATTTTTCAGATGGGTCCCACCTTATTACCCACCGGAGTCACCTAGTGCAG	9560 fluorescence intensity (a.u.)

Sequence	binding signal
CCCCAAACACACACACAGCAAGTGGTTTTTCCTCTTGTTTCGGAGTCACCTAGTGCAG	8950 fluorescence intensity (a.u.)
ATATATATATATATATATATATATATGCAGCAACAGGGCCCGGAGTCACCTAGTGCAG	17400 fluorescence intensity (a.u.)
ACCTTTTTCTTGTTTCTTCCTGTGTTGGGTAATTCGGTTTCGGAGTCACCTAGTGCAG	14100 fluorescence intensity (a.u.)
ATTAATATCTGGCTCACCTATCTCTCGTATATTTTTTTTTCGGAGTCACCTAGTGCAG	11000 fluorescence intensity (a.u.)
ACTAATCACCTGTCACGATGCCACTACCCGGAAAAAAAAACGGAGTCACCTAGTGCAG	8850 fluorescence intensity (a.u.)
GCCTTGTTTAGTTCCCAAAATAAAAATTTTTACGCTGTCACGGAGTCACCTAGTGCAG	10800 fluorescence intensity (a.u.)
ACTGCACGGTTAATTTCCTTGTAATTCATACACTACACAACGGAGTCACCTAGTGCAG	9260 fluorescence intensity (a.u.)
CACCTAGTACACTCATAATGTTTCACTATGTATAGATTTACGGAGTCACCTAGTGCAG	10000 fluorescence intensity (a.u.)
AATCCGCTTACATCCTTAATACTTTCTCCGTCCAGAATATCGGAGTCACCTAGTGCAG	10500 fluorescence intensity (a.u.)
GCCAGATCTTCACATCTTCTCTGGACATTTTCCTAGAGGACGGAGTCACCTAGTGCAG	8040 fluorescence intensity (a.u.)
ATACCTGCTCGGGCCCGAGACGCTCTGCGTTATCTATGTCCGGAGTCACCTAGTGCAG	8060 fluorescence intensity (a.u.)
GGACACCTTCTCACCGGAGGAGCCTTGCCGCGGGGATAATCGGAGTCACCTAGTGCAG	8130 fluorescence intensity (a.u.)
CTCCATCTCGCATCTTCTCTTTCTCTTTCTCTTTCTCTTTCGGAGTCACCTAGTGCAG	13300 fluorescence intensity (a.u.)
GCACTACCTTCACCATTTTTTTTGATTTTTTTCTTTTTTTCGGAGTCACCTAGTGCAG	8270 fluorescence intensity (a.u.)
TTGGTTTCGATCTGGTCGCATCGCACCGCCTCGCCCTACACGGAGTCACCTAGTGCAG	8480 fluorescence intensity (a.u.)
GGGTGTCACATCAGACGGTTGACCAGATATCGGAAGGGGTCGGAGTCACCTAGTGCAG	11300 fluorescence intensity (a.u.)
CTGAAAATTTTGTTCTAAACCACTACTAGTCGTCTACTACCGGAGTCACCTAGTGCAG	8350 fluorescence intensity (a.u.)
AGCCTACCACCCGCCCTTTTCCAGGCCATGTTCGTTACTTCGGAGTCACCTAGTGCAG	8410 fluorescence intensity (a.u.)
TTGCAACTTTTAGTTCCTAACTTTTTCTTCAAACTTCCAACGGAGTCACCTAGTGCAG	8060 fluorescence intensity (a.u.)
ATTCGCTGGTCTGGACGCCGCCTCCGCCGCCGCCGCCATGCGGAGTCACCTAGTGCAG	9120 fluorescence intensity (a.u.)
ATACACCGATTAATGATGGACATCATAGTCTCACTTTTCACGGAGTCACCTAGTGCAG	9010 fluorescence intensity (a.u.)
